In PubChem BioAssay AID493014 (National Center for Advancing Translational Sciences (NCATS), 2011):
“And” between values parts separate entries of the source, which are not always exact repeats. Equal values may be shown once. The list shows a part of the results. These are further read-outs of the screen, such as a control signal, another cell line or another target. No call is given for them. Most of these compounds were active or inconclusive in the main read-out, so they are no random draw. The note in brackets gives the kind of curve behind each potency; many fits are weak.

Experiment: qHTS Assay to Find Inhibitors of Chronic Active B-Cell Receptor Signaling
Conditions: ABC-DLBCL IkBa-CBG/CBR reporter, luminescence ratio (green luciferase fused to IkBa over red control in TMD8 lymphoma cells), 4 h
How it was run: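 Compounds up to 46 uM were incubated four hours with TMD8 cells whose green CBG68 luciferase is fused to IkappaBalpha; red CBR luminescence normalised the signal, and concentration-effect curves were fitted to fusion, red and ratio data.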

[1] = measured here: CBR red luminescence, cell number
[2] = measured here: IkBa-CBG green luminescence

CC1(C)SC(=S)N(/N=C/c2ccccc2O)C1N(O)C(=O)Nc1ccccc1 (stereo unspecified)
AC50 [1]: 10 µM [falling, partial curve, poor fit] | AC50 [2]: 3.98 µM [rising, partial curve, poor fit]

COc1ccc(OCCSCc2nnc(NC(=O)Nc3ccc(Cl)cc3)s2)cc1
AC50 [1]: 9.2 µM [rising, partial curve]

Cc1ccc2c(c1)NC(=O)[C@@]1(C)[C@@H](c3ccccc3)[C@H]3COc4ccc(Cl)cc4[C@@H]3N1C2=O
AC50 [1]: 2.91 µM [falling, full curve]

COc1ccc(-c2cc(C(=O)Nc3nc4c(C)cccc4s3)c3ccccc3n2)cc1OC
AC50 [1]: 2.51 µM [falling, partial curve, poor fit]

O=c1c2c(nc3cc(-c4ccccc4)[nH]n13)CCS2
AC50 [1]: 0.447 µM [falling, full curve]

Fc1ccc(-n2nnnc2-c2cnc(-c3cccs3)nc2C(F)(F)F)cc1
AC50 [1]: 35.5 µM [falling, single point]

C/C(O)=C(/C=NCC(=O)O)C(=O)Nc1nccs1
AC50 [1]: 12.6 µM [falling, partial curve, poor fit]

O=C(O)COc1ccccc1/C=N/NC(=O)c1ccc(F)cc1
AC50 [1]: 15.8 µM [falling, partial curve, poor fit]

Cc1cccc(NC(=O)c2ccc(S(=O)(=O)N3CCOCC3)cc2)c1C
AC50 [1]: 35.5 µM [falling, single point]

CC1C=Cc2ccccc2N1C(=O)c1ccccc1 (stereo unspecified)
AC50 [1]: 10 µM [falling, partial curve, poor fit]

Cc1ccccc1/C=N/N=C1/NC(=O)CCS1
AC50 [1]: 0.631 µM [rising, full curve, poor fit]

CC(C)c1ccc(C2C3CSCC=C3C(C#N)=C(N)C2(C#N)C#N)cc1 (stereo unspecified)
AC50 [1]: 29.1 µM [falling, single point]

Cc1ccc(C2CC(c3cccs3)=NN2C(=O)CCl)cc1 (stereo unspecified)
AC50 [1]: 7.08 µM [falling, partial curve, poor fit]

Cn1c(=O)c2c(nc(N/N=C/c3cccnc3)n2Cc2ccc(F)cc2)n(C)c1=O
AC50 [1]: 3.16 µM [falling, full curve, poor fit] | AC50 [2]: 2.82 µM [rising, full curve, poor fit]

COc1ccccc1C1=NC(c2ccc(F)cc2)N=C1C (stereo unspecified)
AC50 [1]: 14.1 µM [falling, partial curve]

Cc1cc(C)c2nc(SCC(=O)Nc3ccc(S(=O)(=O)N4CCCC4)cc3)c(C)cc2c1
AC50 [1]: 29.1 µM [rising, single point]

Cc1cc(C)c2nc(N3CCC(C(=O)NCCCN4CCCCC4)CC3)sc2c1
AC50 [1]: 14.6 µM [falling, partial curve]

S=c1[nH]nc(-c2cc(-c3ccccc3)n[nH]2)n1/N=C/c1ccc(Cl)cc1
AC50 [1]: 35.5 µM [rising, single point]

Clc1cccc(-c2ccc3ncnc(NCc4cccs4)c3c2)c1
AC50 [1]: 29.1 µM [falling, single point]

O=C(O)C1=C[C@H](c2cccs2)C[C@H](OCc2ccc(CO)cc2)O1
AC50 [2]: 11.2 µM [falling, partial curve, poor fit]

CCCN1CCN(CCCNC(=O)c2cc3c(=O)n(C)c4ccccc4c3n2C)CC1
AC50 [1]: 7.31 µM [falling, single point]

C/C(=N\NC(=O)c1cc(C)oc1C)c1ccc(N2CCOCC2)cc1
AC50 [1]: 35.5 µM [falling, partial curve, poor fit]

CC(C)(c1cc(Br)c(O)c(Br)c1)c1cc(Br)c(O)c(Br)c1
AC50 [1]: 18.4 µM [rising, partial curve, poor fit] | AC50 [2]: 23.1 µM [falling, partial curve, poor fit]

COC(=O)CSc1nnc(-c2c[nH]c3ccccc23)o1
AC50 [1]: 22.4 µM [falling, single point]

Cc1cc(N2CCN(C)CC2)nc2ccc(NC(=S)N3CCN(c4ccccn4)CC3)cc12
AC50 [1]: 17.8 µM [falling, partial curve, poor fit]

COC(=O)c1cn(Cc2ccccn2)c(=O)c2ccccc12
AC50 [1]: 8.91 µM [falling, partial curve, poor fit]

Cc1cccc(N2C(=O)C(Cc3ccccc3)NC2=S)c1 (stereo unspecified)
AC50 [1]: 8.2 µM [rising, partial curve]

CC1=NN(c2ccccc2)C(=O)/C1=C\c1cc(C)n(C)c1C
AC50 [1]: 15.8 µM [falling, single point]

COc1ccc(OCc2cccc(C(=O)Nn3cc([N+](=O)[O-])cn3)c2)cc1
AC50 [1]: 6.51 µM [falling, partial curve, poor fit]

CCNC(=O)/C(C#N)=C/c1c(N2CCCCCC2)nc2c(C)cccn2c1=O
AC50 [1]: 5.01 µM [falling, full curve, poor fit]

CCNC(=S)NN=C1c2ccccc2-c2ccccc21
AC50 [1]: 5.62 µM [falling, single point] | AC50 [2]: 3.55 µM [falling, single point]

CC(CCc1ccccc1)NS(=O)(=O)c1ccccc1 (stereo unspecified)
AC50 [1]: 35.5 µM [rising, partial curve, poor fit]

N#Cc1c2ccc([N+](=O)[O-])cc2[n+]([O-])n1-c1ccccc1
AC50 [1]: 6.51 µM [rising, partial curve]

CCCOc1ccccc1NC(=O)CC1Nc2ccccc2NC1=O (stereo unspecified)
AC50 [1]: 6.51 µM [falling, partial curve, poor fit]

CCOC(=O)c1ccc(COc2nc3ccccc3nc2-c2ccccc2NC(C)=O)o1
AC50 [1]: 7.31 µM [falling, single point]

CCC(CC)N1CCN(Cc2nc3ccc([N+](=O)[O-])cc3c(=O)n2-c2ccccc2F)CC1
AC50 [1]: 12.6 µM [rising, partial curve, poor fit]

O=C(Nc1ccccc1Cl)Nc1ccccc1Cl
AC50 [1]: 1.41 µM [falling, full curve]

CCCCOC(=O)C1CCCC(C(=O)OCCCC)N1 (stereo unspecified)
AC50 [1]: 11.2 µM [rising, partial curve, poor fit]

CN1/C(=C\C(=O)CSc2nnc(NCc3ccccc3)s2)C(C)(C)c2ccccc21
AC50 [1]: 29.1 µM [falling, single point]

COc1ccc(CCNC(=O)C(CCC(N)=O)NS(=O)(=O)c2ccc(Cl)cc2)cc1OC (stereo unspecified)
AC50 [1]: 3.98 µM [rising, partial curve, poor fit]

Cc1nc2sc(-c3ccccc3)cc2c(=O)n1/N=C/N(C)C
AC50 [1]: 3.55 µM [falling, partial curve]

CCOc1ccc(NC(=O)CN(C)C(=O)c2ccc3[nH]c4c(c3c2)CC(C)CC4)cc1OCC (stereo unspecified)
AC50 [1]: 3.26 µM [rising, partial curve, poor fit]

CC(C)C(=O)NC(Nc1cc(C(F)(F)F)ccc1Cl)C(Cl)(Cl)Cl (stereo unspecified)
AC50 [1]: 23.1 µM [falling, single point]

COc1cc(SC)ccc1C(=O)NCCOc1ccc(F)cc1
AC50 [1]: 4.61 µM [rising, full curve, poor fit]

CCOc1ccc(C(=O)c2cc([N+](=O)[O-])ccc2N2CCOCC2)cc1
AC50 [2]: 0.291 µM [falling, full curve]

COc1ccc(-c2noc(N3CCC(C(=O)Nc4ccc(OC)c(OC)c4)CC3)n2)cc1
AC50 [1]: 3.16 µM [rising, single point]

O=C(COC(=O)c1cc(Cl)ccc1O)NNC(=O)c1ccc([N+](=O)[O-])cc1
AC50 [1]: 29.1 µM [rising, single point]

Cc1cc(C)nc(SCC(=O)c2cc3ccccc3oc2=O)n1
AC50 [1]: 4.61 µM [falling, full curve, poor fit]

COc1ccc(CNC2CCN(Cc3ccccc3)CC2)cc1
AC50 [1]: 10 µM [falling, partial curve, poor fit]

O=c1cc(-c2ccccc2)[nH][nH]1
AC50 [1]: 9.2 µM [falling, partial curve]

COC(=O)C1=C(C)N(Cc2ccccc2)C(=NCCc2c[nH]c3ccccc23)N[C@H]1c1cccc(C(F)(F)F)c1
AC50 [1]: 10 µM [falling, partial curve] and 29.1 µM [falling, single point]

C=CCn1c(-c2csc3ccccc23)n[nH]c1=S
AC50 [2]: 20.6 µM [falling, single point]

COc1ccccc1NC(=O)COC(=O)c1ccc(N2CCCC2=O)cc1
AC50 [1]: 1.84 µM [rising, partial curve, poor fit]

O=C(COC(=O)CCN1C(=O)/C(=C\C=C\c2ccccc2)SC1=S)Nc1cc(F)ccc1F
AC50 [1]: 0.1 µM [falling, full curve]

CC(=O)Nc1nc(C)c(-c2csc(Nc3ccc(O)cc3)n2)s1
AC50 [1]: 7.31 µM [falling, partial curve] | AC50 [2]: 3.26 µM [falling, partial curve, poor fit]

CCc1ccc([C@@H]2C[C@H]3CN(Cc4ccccc4OC)C(=O)[C@]34CCCN24)cc1
AC50 [1]: 22.4 µM [falling, partial curve, poor fit]

Cc1nc2c3ccccc3nc(NNC(=O)CCC(=O)NC(C)C)n2n1
AC50 [1]: 29.1 µM [falling, single point]

O=c1ccsn1Cc1ccccc1
AC50 [1]: 7.31 µM [falling, single point]

CC(=O)c1ccc(NC(=O)C2CC(=O)N(Cc3ccccc3)C2)cc1 (stereo unspecified)
AC50 [1]: 29.1 µM [rising, single point]

O=C1CCc2cc(S(=O)(=O)N3CCC(C(=O)NCCC4=CCCCC4)CC3)ccc2N1
AC50 [1]: 29.1 µM [rising, single point]

O=Cc1cccn1-c1ccc(O)cc1
AC50 [1]: 2.24 µM [rising, single point]
